Results are given in words; binding and its absence hold for the method and conditions named. Some entries that bind do so weakly or less than the wild type. Each block holds one binder with its values, some of them ahead of it.
How the values were obtained:
Assay in all cases: cryo-EM structure
[1] = molecular target: T1, NIP7 (human (endogenous in HEK 293-F)) (UniProt Q9Y221)
T1 sequence: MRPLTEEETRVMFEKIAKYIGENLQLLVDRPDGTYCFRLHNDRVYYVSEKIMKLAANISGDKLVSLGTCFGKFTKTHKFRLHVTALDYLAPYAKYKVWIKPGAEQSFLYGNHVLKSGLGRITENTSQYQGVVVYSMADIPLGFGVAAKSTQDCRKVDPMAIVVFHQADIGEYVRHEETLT

By UniProt entry, the sequences of proteins in these tests, tags left out.
UniProt Q8TDD1: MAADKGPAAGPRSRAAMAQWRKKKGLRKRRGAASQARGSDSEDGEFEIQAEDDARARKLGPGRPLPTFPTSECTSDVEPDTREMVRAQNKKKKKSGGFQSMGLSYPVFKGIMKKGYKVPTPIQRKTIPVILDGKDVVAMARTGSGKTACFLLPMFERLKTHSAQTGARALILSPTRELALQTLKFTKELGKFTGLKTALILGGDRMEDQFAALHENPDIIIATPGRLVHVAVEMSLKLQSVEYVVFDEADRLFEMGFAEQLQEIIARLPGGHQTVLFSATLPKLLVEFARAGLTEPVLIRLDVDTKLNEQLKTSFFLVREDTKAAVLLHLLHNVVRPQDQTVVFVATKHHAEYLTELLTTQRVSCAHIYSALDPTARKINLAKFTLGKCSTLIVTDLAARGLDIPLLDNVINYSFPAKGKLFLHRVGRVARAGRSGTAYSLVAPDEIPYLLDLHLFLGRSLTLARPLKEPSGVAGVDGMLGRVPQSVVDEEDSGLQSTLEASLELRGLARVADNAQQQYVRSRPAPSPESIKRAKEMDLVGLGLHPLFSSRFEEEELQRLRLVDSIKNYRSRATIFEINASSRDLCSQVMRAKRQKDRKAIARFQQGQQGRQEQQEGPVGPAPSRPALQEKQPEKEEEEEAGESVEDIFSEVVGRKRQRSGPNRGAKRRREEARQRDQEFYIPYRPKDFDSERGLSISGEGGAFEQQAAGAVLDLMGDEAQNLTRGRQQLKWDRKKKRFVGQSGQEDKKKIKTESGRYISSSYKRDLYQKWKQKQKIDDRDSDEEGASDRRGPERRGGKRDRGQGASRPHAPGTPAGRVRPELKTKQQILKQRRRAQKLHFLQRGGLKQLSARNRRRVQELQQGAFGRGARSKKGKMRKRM
UniProt Q14137: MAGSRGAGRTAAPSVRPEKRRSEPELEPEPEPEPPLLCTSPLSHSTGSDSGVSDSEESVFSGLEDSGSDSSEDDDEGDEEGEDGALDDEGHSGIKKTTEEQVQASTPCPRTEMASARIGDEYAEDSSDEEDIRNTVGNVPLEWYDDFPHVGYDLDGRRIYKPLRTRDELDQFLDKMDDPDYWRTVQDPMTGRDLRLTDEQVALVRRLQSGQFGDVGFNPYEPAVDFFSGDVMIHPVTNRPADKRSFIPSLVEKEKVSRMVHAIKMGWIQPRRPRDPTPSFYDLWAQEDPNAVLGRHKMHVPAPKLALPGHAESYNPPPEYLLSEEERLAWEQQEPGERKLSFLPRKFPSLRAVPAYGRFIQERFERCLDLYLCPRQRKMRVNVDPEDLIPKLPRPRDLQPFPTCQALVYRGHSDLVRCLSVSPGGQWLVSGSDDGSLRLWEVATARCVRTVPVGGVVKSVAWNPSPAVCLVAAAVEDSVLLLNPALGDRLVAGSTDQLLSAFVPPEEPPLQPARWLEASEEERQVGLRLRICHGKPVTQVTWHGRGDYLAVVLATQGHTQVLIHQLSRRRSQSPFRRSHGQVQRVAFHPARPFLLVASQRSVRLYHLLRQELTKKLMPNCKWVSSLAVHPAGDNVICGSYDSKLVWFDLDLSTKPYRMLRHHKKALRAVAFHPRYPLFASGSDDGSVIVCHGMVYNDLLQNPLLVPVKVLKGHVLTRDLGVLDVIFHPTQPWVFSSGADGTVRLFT

[2] = molecular target: DDX54 (human (endogenous in HEK 293-F)) (UniProt Q8TDD1)
[3] = molecular target: BOP1 (human (endogenous in HEK 293-F)) (UniProt Q14137)

- binding [1]: binds
B1: NOP2 (protein, UniProt P46087 1-812)
chain: MGRKLDPTKEKRGPGRKARKQKGAETELVRFLPAVSDENSKRLSSRARKRAAKRRLGSVEAPKTNKSPEAKPLPGKLPKGISAGAVQTAGKKGPQSLFNAPRGKKRPAPGSDEEEEEEDSEEDGMVNHGDLWGSEDDADTVDDYGADSNSEDEEEGEALLPIERAARKQKAREAAAGIQWSEEETEDEEEEKEVTPESGPPKVEEADGGLQINVDEEPFVLPPAGEMEQDAQAPDLQRVHKRIQDIVGILRDFGAQREEGRSRSEYLNRLKKDLAIYYSYGDFLLGKLMDLFPLSELVEFLEANEVPRPVTLRTNTLKTRRRDLAQALINRGVNLDPLGKWSKTGLVVYDSSVPIGATPEYLAGHYMLQGASSMLPVMALAPQEHERILDMCCAPGGKTSYMAQLMKNTGVILANDANAERLKSVVGNLHRLGVTNTIISHYDGRQFPKVVGGFDRVLLDAPCSGTGVISKDPAVKTNKDEKDILRCAHLQKELLLSAIDSVNATSKTGGYLVYCTCSITVEENEWVVDYALKKRNVRLVPTGLDFGQEGFTRFRERRFHPSLRSTRRFYPHTHNMDGFFIAKFKKFSNSIPQSQTGNSETATPTNVDLPQVIPKSENSSQPAKKAKGAAKTKQQLQKQQHPKKASFQKLNGISKGADSELSTVPSVTKTQASSSFQDSSQPAGKAEGIREPKVTGKLKQRSPKLQSSKKVAFLRQNAPPKGTDTQTPAVLSPSKTQATLKPKDHHQPLGRAKGVEKQQLPEQPFEKAAFQKQNDTPKGPQPPTVSPIRSSRPPPAKRKKSQSRGNSQLLLS

- binding [2]: binds
- binding [3]: binds
B2: FTSJ3 (enzyme, UniProt Q8IY81 1-847)
chain: MGKKGKVGKSRRDKFYHLAKETGYRSRSAFKLIQLNRRFQFLQKARALLDLCAAPGGWLQVAAKFMPVSSLIVGVDLVPIKPLPNVVTLQQDITTERCRQALRKELKTWKVDVVLNDGAPNVGASWVHDAYSQAHLTLMALRLACDFLARGGSFITKVFRSRDYQPLLWIFQQLFRRVQATKPQASRHESAEIFVVCQGFLAPDKVDSKFFDPKFAFKEVEVQAKTVTELVTKKKPKAEGYAEGDLTLYHRTSVTDFLRAANPVDFLSKASEIMVDDEELAQHPATTEDIRVCCQDIRVLGRKELRSLLNWRTKLRRYVAKKLKEQAKALDISLSSGEEDEGDEEDSTAGTTKQPSKEEEEEEEEEQLNQTLAEMKAQEVAELKRKKKKLLREQRKQRERVELKMDLPGVSIADEGETGMFSLSTIRGHQLLEEVTQGDMSAADTFLSDLPRDDIYVSDVEDDGDDTSLDSDLDPEELAGVRGHQGLRDQKRMRLTEVQDDKEEEEEENPLLVPLEEKAVLQEEQANLWFSKGSFAGIEDDADEALEISQAQLLFENRRKGRQQQQKQQLPQTPPSCLKTEIMSPLYQDEAPKGTEASSGTEAATGLEGEEKDGISDSDSSTSSEEEESWEPLRGKKRSRGPKSDDDGFEIVPIEDPAKHRILDPEGLALGAVIASSKKAKRDLIDNSFNRYTFNEDEGELPEWFVQEEKQHRIRQLPVGKKEVEHYRKRWREINARPIKKVAEAKARKKRRMLKRLEQTRKKAEAVVNTVDISEREKVAQLRSLYKKAGLGKEKRHVTYVVAKKGVGRKVRRPAGVRGHFKVVDSRMKKDQRAQQRKEQKKKHKRK

Source: paper doi:10.1101/2023.03.14.532478
